This note sets out measurements from publication PMC12670400 (Journal of Medicinal Chemistry, 2025).

The data set is described as follows: general procedure: Fmoc solid-phase peptide synthesis; preloaded Fmoc-Cys Wang resin (0.7 mmol/g) for 2-6; hydrazine carbamate Wang resin (0.9 mmol/g) for 7-10; HBTU/HOBt/DIPEA (plus DMAP for 7-10). The settings on record: cyclisation step; for final HPLC purity: 280 nm.
[1] abbreviates: bicyclic, sequence written open.
[2] abbreviates: relative to the linear peptide, bicyclic, sequence written open.

Plain letter strings leave the end groups untold. One purity is given for all peptides; the source may state it once. Some peptides are written in HELM: one residue between dots, names in brackets for other building blocks, links after the first $. Bridge positions count the residues as written; N and C are the ends.

For GFCHREYPPHCWPN, the “final HPLC purity” value under setting [1] is reported as “over 95%”. The cyclisation yield under setting [2] is recorded as 18%.

As to GFCTRSNPPECWPN, under setting [1], the “final HPLC purity” value is on record as “over 95%”. In addition, the cyclisation yield (from linear peptide, bicyclic, sequence written open) is 8%.

For the substance GFCTRSNPPHCWPN, the “final HPLC purity” value under setting [1] is on record as “over 95%”. Besides, the cyclisation yield under setting [2] came to 15%.

Consider “PEPTIDE1{G.F.C.H.R.S.Y.P.P.E.C.W.P.N}$PEPTIDE1,PEPTIDE1,1:R1-14:R2|PEPTIDE1,PEPTIDE1,3:R3-11:R3$$$V2.0”, for which the “final HPLC purity” value is “over 95%”. Also, the cyclisation yield (from linear peptide) is listed as 6%.

Regarding “PEPTIDE1{G.R.C.T.R.S.I.P.P.H.C.W.P.D}$PEPTIDE1,PEPTIDE1,1:R1-14:R2|PEPTIDE1,PEPTIDE1,3:R3-11:R3$$$V2.0”, the “final HPLC purity” value was “over 95%”. Moreover, the cyclisation yield (relative to the linear peptide) was found to be 18%.

As for “cyclo(GFCHRSYPPHCWPN) (disulfide 3-11; SMILES N=C(N)NCCC[C@@H]1NC(=O)[C@H](Cc2c[nH]cn2)NC(=O)[C@@H]2CSSC[C@H](NC(=O)[C@H](Cc3c[nH]cn3)NC(=O)[C@@H]3CCCN3C(=O)[C@@H]3CCCN3C(=O)[C@H](Cc3ccc(O)cc3)NC(=O)[C@H](CO)NC1=O)C(=O)N[C@@H](Cc1c[nH]c3ccccc13)C(=O)N1CCC[C@H]1C(=O)N[C@@H](CC(N)=O)C(=O)NCC(=O)N[C@@H](Cc1ccccc1)C(=O)N2)”, the “final HPLC purity” value is given as “over 95%”. Moreover, the cyclisation yield (relative to the linear peptide) is reported as 15%.

Regarding “cyclo(GFCTRENPPHCWPN) (disulfide 3-11; SMILES C[C@@H](O)[C@@H]1NC(=O)[C@@H]2CSSC[C@H](NC(=O)[C@H](Cc3c[nH]cn3)NC(=O)[C@@H]3CCCN3C(=O)[C@@H]3CCCN3C(=O)[C@H](CC(N)=O)NC(=O)[C@H](CCC(=O)O)NC(=O)[C@H](CCCNC(=N)N)NC1=O)C(=O)N[C@@H](Cc1c[nH]c3ccccc13)C(=O)N1CCC[C@H]1C(=O)N[C@@H](CC(N)=O)C(=O)NCC(=O)N[C@@H](Cc1ccccc1)C(=O)N2)”, the “final HPLC purity” value is “over 95%”. Further, under “relative to the linear peptide”, the cyclisation yield turned out to be 14%.

As to “cyclo(GSCTRSSPPECWPN) (disulfide 3-11; SMILES C[C@@H](O)[C@@H]1NC(=O)[C@@H]2CSSC[C@H](NC(=O)[C@H](CCC(=O)O)NC(=O)[C@@H]3CCCN3C(=O)[C@@H]3CCCN3C(=O)[C@H](CO)NC(=O)[C@H](CO)NC(=O)[C@H](CCCNC(=N)N)NC1=O)C(=O)N[C@@H](Cc1c[nH]c3ccccc13)C(=O)N1CCC[C@H]1C(=O)N[C@@H](CC(N)=O)C(=O)NCC(=O)N[C@@H](CO)C(=O)N2)”, the “final HPLC purity” value is “over 95%”. The cyclisation yield (from linear peptide) is reported as 9%.

With cyclo(GYCTRSSPPECWPN) (disulfide 3-11), the “final HPLC purity” value is reported as “over 95%”. The cyclisation yield (from linear peptide) amounted to 12%.
